{"source": "patent US20110082098A1", "about": "“NOVOBIOCIN ANALOGUES AND TREATMENT OF POLYCYSTIC KIDNEY DISEASE” (UNIVERSITY OF KANSAS, priority 2009, published 2011)", "origin": "cited, not measured here", "key": {"polycystic mouse models": {"test_system": "polycystic mouse models", "conditions": "cited from earlier work"}, "[1]": {"test_system": "polycystic kidneys of ADPKD patients", "conditions": "about 2 years after beginning of treatment; cited from earlier work"}, "[2]": {"conditions": "aggressive, early onset mouse model, two weeks"}}, "note": "Read-outs that look alike come from different tables or passages of the source. For at least one compound, name, drawing or mass did not settle the structure."}
{"smiles": "CO[C@H]1C[C@@H]2CC[C@@H](C)[C@@](O)(O2)C(=O)C(=O)N2CCCC[C@H]2C(=O)O[C@H]([C@H](C)C[C@@H]2CC[C@@H](O)[C@H](OC)C2)CC(=O)[C@H](C)/C=C(\\C)[C@@H](O)[C@@H](OC)C(=O)[C@H](C)C[C@H](C)/C=C/C=C/C=C/1C", "note": "[rapamycin]", "values": [{"measurement": "kidney function", "setting": "polycystic mouse models; [2]", "value": "prevented loss of kidney function"}, {"measurement": "kidney size", "setting": "polycystic mouse models; [2]", "value": "reduction of kidney size"}, {"measurement": "kidney size", "setting": "polycystic mouse models; mild, late-onset mouse model, one month", "value": "reduction of kidney size"}, {"measurement": "effect in the kidneys of normal mice", "setting": "polycystic mouse models; normal mice", "value": "no effect"}, {"measurement": "decrease of kidney volumes (CT scans)", "setting": "[1]", "value": 25, "unit": "%"}]}
